Screen size: about 210,000 compounds; about 5,900 (2.8%) were called active. Roughly 5% stayed inconclusive and do not appear here. The call rests on the fitted dose curve; in most records, active means well fitted activation curve with a large enough effect; inconclusive means small, poorly fitted or top-dose-only effect; inactive means no such curve, though single readings can be large or run the other way. The list shows a part of the results, in another mix than the full data. Entries without a call were filed so in the source.
Test: qHTS Assay for Enhancers of SMN2 Splice Variant Expression; further: nearly all actives have a fitted effect of over 55% in size; on activity change, positive = activation: % of control where 0% means no effect
Settings: HEK293 SMN2-luciferase splicing reporter, luminescence, 30-36 h; activity change, positive = activation: at 46.1 µM (top of the series)
Source text: NIH Chemical Genomics Center [NCGC] NIH Molecular Libraries Probe Production centers Network [MLPCN] MLPCN Grant: R03 MH084179-01 Assay Submitter (PI): Elliot Androphy NCGC Assay Overview: Spinal muscular atrophy (SMA) is caused by insufficient levels of the survival motor neuron protein SMN. The SMN locus on chromosome 5q13 contains two inverted copies of SMN called SMN1 and SMN2 which are 99% identical at the amino acid level. SMN1 is a fully functional protein and SMN2 skips exon 7 90% of the time. Skipping of exon 7 produces non-functional protein product. 10% of the SMN2 protein includes exon 7 and is fully functional. In the SMA disease state, mutations in the SMN1 locus are the cause of the disease state. Because only 10% of SMN2 is of the fully functional form, it is not sufficient to overcome the deficiency produced by the loss of the SMN1 product. A therapy that either increase the amount of SMN2 product made or to increase the inclusion of exon 7 has been proposed for the treatment of SMA. We have designed an assay to identify small molecules that can increase the amount of functional SMN2 product by appending a luciferase reporter gene after the native SMN2 gene, such that inclusion of exon 7 in the expressed product places the luciferase sequence in frame, thus generating functional luciferase enzyme.
NCGC Assay Protocol Summary: This screen utilizes a luciferase reporter gene assay, combining the promoter and splicing based cassettes in tandem with the major portion of the native SMN2 cDNA, and then transfected into HEK293 cells. Compounds that increase luciferase signal presumably enhance expression of the functional SMN2 splice variant. Passaging media contained DMEM w/ glutamax (+phenol red) 10% FCS, 1x pen/strep, 200 ug/ml hygro, 1x sodium pyruvate. Assay media contained DMEM w/ glutamax (-phenol red) 10% FCS, 1x pen strep, 1x pyruvate Sequence, Parameter, Value, Description (1) Cells, […], 2000 cells/well, 1536 TC treated White solid bottom plate (2) Time, 10-12 hours, 37C 5% CO2 (3) Compound, 23 nl, MLSMR Library (4) Control Compound, 23 nL, Sodium butyrate st 4.5mM (final) conc (5) Time, 30-36 hours, 37C 5% CO2 (6) Reagent, 3 ul, One Glo (TM) from Promega (7) Time, 5-15 minutes, Room temp (8) Detector, Viewlux: luminescent read, 60 second integration, high speed 2x binning Keywords: Spinal muscular atrophy, SMA, SMN2, high throughput screening, MLSMR, MLPCN, NIH Roadmap, qHTS and NCGC
Potency means the concentration at half of the fitted maximal effect.

Structure (SMILES)	activity change, positive = activation	Potency
O=C1C2CCCN2C(c2cccnc2)N1c1cccc(Cl)c1 (stereo unspecified)	36.8%	–
COc1cccc(C2=NOC(C(=O)N3CCC4(CC3)OCCO4)C2)c1 (stereo unspecified)	72.3%	–
COC(=O)c1c(C)n(Cc2ccco2)c2ccc(O)cc12	-36.4%	–
N=c1c2c(n(Cc3ccc(Cl)cc3Cl)c3c1CCC3)CCCC2	-51.1%	–
CC(=O)c1c(O)c(C)c(O)c(Cc2c(O)c3c(c(C(=O)/C=C/c4ccccc4)c2O)OC(C)(C)C=C3)c1O	–	inactive
O=C(Nc1ccc(F)cc1F)c1cccn(Cc2ccccc2)c1=O	inactive: -77.5%	–
COc1ccc(CCC(=O)N2CCC3(CC2)OCCO3)cc1	37.3%	–
CNc1ccc2oc(C[C@@H]3OC4(CC[C@@H]3C)O[C@H]([C@@H](C)C(=O)c3ccc[nH]3)[C@H](C)C[C@H]4C)nc2c1C(=O)O (stereo partly specified)	–	inactive
CCC1/C=C/C=CCC(C)C(O)[C@@](C)(O)C(=O)C(C)C(O)C(C)C(=O)C(C)C(O)C(C)C=CC(=O)O[C@H]2C(C)C(CC1)O[C@]1(CCC(C)C(CC(C)O)O1)C2C (stereo partly specified)	inactive: -54%	–
COc1ccccc1OCCCn1cc(C(=O)c2ccco2)c2ccccc21	inactive: -52%	–
Cc1nc2c(C(=O)N3CCC4(CC3)OCCO4)cnn2c(C)c1Cc1cccc(Cl)c1	-38.8%	–
C[N+]1(C)[C@@H]2CC(OC(=O)[C@@H](CO)c3ccccc3)C[C@@H]1[C@H]1O[C@H]12 (stereo partly specified)	inactive: -0.838% [at 9.22 µM]	–
CN(C)c1ccc(C=C2C(=O)NC(=O)NC2=O)cc1[N+](=O)[O-]	23.5%	–
O[C@H]1C2CCC1C(N1CCCCC1)CC2 (stereo partly specified)	36.8%	–
C=C1C([C@@H](O)C[C@H](C)C2O[C@@]3(CCCCO3)CC[C@H]2C)OC2CC[C@@]3(CC[C@@H](/C=C/[C@@H](C)C4CC(C)=C[C@]5(O4)O[C@H](C[C@@](C)(O)C(=O)O)CCC5O)O3)OC2[C@@H]1O (stereo partly specified)	-57.9%	–
COC(=O)[C@H]1C[C@@H]1[C@H](NP(=O)(c1ccccc1)c1ccccc1)c1ccccc1	–	inactive
CC[C@@H]1CN2CCc3cc(OC)c(OC)cc3[C@H]2C[C@@H]1C[C@H]1NCCc2cc(OC)c(OC)cc21	inactive: -53.7% [at 20.6 µM]	–
NC(=O)c1ncn(C2OC(CO)C(O)C2O)n1 (stereo unspecified)	–	active: 15.8 µM
NC(=O)CN1CC(c2ccccc2)CC1=O (stereo unspecified)	41.1%	–
CC(C)(C)C(=O)c1cn(CC(=O)NCc2ccco2)c2ccccc12	–	active: 14.1 µM
CC(=O)[O][Hg][c]1ccccc1	–	inactive
CC(=O)N1CCc2cc(S(=O)(=O)N3CCN(c4ccc(C)cc4)C(C)C3)ccc21 (stereo unspecified)	inactive: -30.8%	–
COc1ccc(Nc2ncc(C(=O)N3CCC4(CC3)OCCO4)c3ccccc23)cc1	30.2%	–

Reformatted bar-delimited: 3 of the compounds above
Structure (SMILES) | activity change, positive = activation | Potency
COc1cccc(C2=NOC(C(=O)N3CCC4(CC3)OCCO4)C2)c1 (stereo unspecified) | 72.3% | –
COc1ccc(CCC(=O)N2CCC3(CC2)OCCO3)cc1 | 37.3% | –
COc1ccccc1OCCCn1cc(C(=O)c2ccco2)c2ccccc21 | inactive: -52% | –

Additional entries follow:

Structure (SMILES)	activity change, positive = activation	Potency
O=C(CCCN1CCC2(CC1)C(=O)N(Cc1cccc(F)c1)CN2c1ccccc1)c1ccc(F)cc1	inactive: -96.1%	–
Cc1c(C(c2ccc(F)cc2)c2c(O)c3ccccc3oc2=O)c(=O)n(-c2ccccc2)n1C (stereo unspecified)	34.4%	–
COc1ccc(C(=O)Nc2ccc(Cl)cc2C(=O)c2ccccc2)c(OC)c1	inactive: -49.4%	–
CNC(=O)Oc1cccc(-c2cn3cc(OC(=O)NC)ccc3n2)c1	–	active: 12.6 µM
CC(=O)N1CCN(c2ccc(OC[C@@H]3CO[C@@](Cn4ccnc4)(c4ccc(Cl)cc4Cl)O3)cc2)CC1	inactive: -45.6% [at 20.6 µM]	–
CN(C)C(=O)Oc1ccc(OCc2cccc[n+]2C)cc1	-35.1%	–
O=C(c1ccccc1)c1cn(CC(=O)N2CCCc3ccccc32)c2ccccc12	16%	–
CCC(=O)c1cn(Cc2ccc(C#N)cc2)c2ccccc12	26.2%	–
C=CCc1ccc2c(c1)OCO2	27.5%	–
Cc1ccc(N2CCN(C(=O)C3CCC(CNS(=O)(=O)c4ccc(Br)s4)CC3)CC2C)cc1 (stereo unspecified)	inactive: -35.3%	–
CC(=O)[O-].CC(=O)[O-].CC(=O)[O-].[Cr+3]	inactive: -16.4%	–
CCCCCc1nc2ccccc2c(=O)n1-c1ccccc1[N+](=O)[O-]	-10.9%	–
CC(C)[C@]12O[C@H]1[C@@H]1O[C@]13[C@]1(O[C@H]1C[C@H]1C4=C(CC[C@@]13C)C(=O)OC4)[C@@H]2O	-94.6%	–
Cc1nnc(SCc2nc3ccccc3c(=O)n2-c2ccccc2Cl)n1N	43%	–
CCCn1c(C(=O)c2ccccc2)nc2ccccc21	inactive: -24.3%	–
CC(C)(C)C(=O)NC1CCSC1=O (stereo unspecified)	33.9%	–
CC1OC(NCCc2ccccc2)C(O)C(O)C1O (stereo unspecified)	33.4%	–
O=c1c2ccccc2nc(-c2ccco2)n1-c1nccs1	27.4%	–
O=C(O)[C@@H]1[C@H](C(=O)O)[C@]2(Cl)C(Cl)=C(Cl)[C@@]1(Cl)C2(Cl)Cl	inactive: -63.8% [at 9.22 µM]	–
Cc1nc2c(c(C)nn2-c2ccccc2)c(C)c1CCC(=O)N1CCC2(CC1)OCCO2	18.1%	–
CCCCCCn1c(=O)c(C(=O)Nc2ccncc2)c(O)c2ccccc21	-64.7%	–
CC1O[C@@H](O[C@@H]2C(O)C[C@H](O[C@@H]3C(O)C[C@@H](OC4CC[C@@]5(C)C6CC[C@]7(C)C(C8=CC(=O)OC8)CC[C@@]7(O)C6CC[C@@H]5C4)OC3C)OC2C)CC(O)[C@H]1O (stereo partly specified)	inactive: -75.9%	–
CCCCn1c(O)c(C(C)=Nc2cccc(C(=O)O)c2)c(=O)[nH]c1=O	36.5%	–

Structure (SMILES)	activity change, positive = activation	Potency
CC1CC2(O)c3nonc3CCC2N1O (stereo unspecified)	41.7%	–
CCOc1ccc(CCNC(=O)c2ccc(CS(=O)(=O)c3ccccc3C)o2)cc1OCC	inactive: -30.5%	–
CCn1nc(-c2ccccc2)nc2c(=O)n(C)c(=O)nc1-2	–	active: 7.08 µM
C[C@@H]1C[C@@H]([C@H](O)CC2CC(=O)NC(=O)C2)C(=O)[C@@H](C)C1	–	inactive
CCC(C(=O)O)C1CCC(C)C(C(C)C(O)C(C)C(=O)C(CC)C2OC3(C=CC(O)[C@@]4(CC[C@](C)(C5CC[C@@](O)(CC)C(C)O5)O4)O3)C(C)CC2C)O1 (stereo partly specified)	inactive: -50.2%	–
COc1cc2c(cc1OC)C1C(=O)c3c(cc4c(c3O)C=CC(C)(C)O4)OC1CO2 (stereo unspecified)	inactive: -57.6%	–
CCOc1ccc2nc(N3CCC(C(=O)N4CCC5(CC4)OCCO5)CC3)sc2c1	-66.3%	–
O=c1[nH]c(=S)[nH]c(O)c1N=Nc1ccc(OC(F)F)cc1	–	active: 12.6 µM
COc1ccc(-c2cc(=NCCC(=O)O)c3cc(C)ccc3o2)cc1	150%	–
O=C(c1cc(C(=O)NCc2ccc(Cl)cc2)c(=O)n(Cc2ccc(Cl)cc2)c1)c1cc(F)ccc1O	-58.8%	–
COc1ccc(-c2cc(=Nc3cccc(C(=O)O)c3)c3cc(C)ccc3o2)cc1	93.3%	–
CCCCC[CH2][Hg][S]C1=C2N=CNC2NC(N)=N1 (stereo unspecified)	inactive: -47.6% [at 9.22 µM]	–
COc1ccccc1CCNC1CCC(C)CC1 (stereo unspecified)	14.1%	–
CC1CC2(O)c3no[n+]([O-])c3CCC2N1O (stereo unspecified)	31%	–
CC(=O)Nc1ccccc1OP1(=O)COc2ccccc2OC1	43.2%	–
CNC(=O)ON(C(=O)NC)C1N(C)C(=S)SC1(C)C (stereo unspecified)	38.2%	–
Cn1c(O)c(/C=C/C=Nc2ccccc2)c(=O)n(C)c1=O	27.1%	–
CCOC(=O)c1c(C)n(CC(O)CN2CCOCC2)c2cc(Br)c(OC)cc12 (stereo unspecified)	38.5%	–
CC(Cc1ccccc1)NC(=O)NC(C)Cc1ccccc1 (stereo unspecified)	65.4%	–
CC(=O)OC1C(=O)[C@]2(C)C(O)CC3OC[C@]3(OC(C)=O)C2[C@@H](OC(=O)c2ccccc2)[C@]2(O)CC(O)C(C)=C1C2(C)C (stereo partly specified)	-53%	–
O=C(Cn1ncc2c3ccccc3n(Cc3ccc(F)cc3)c2c1=O)N1CCC2(CC1)OCCO2	inactive: -34.2%	–
O=Cc1cn(CCCOc2ccccc2)c2ccccc12	inactive: -60.6%	–
CC[C@]1([C@H]2O[C@@H]([C@@H]3O[C@](O)(CO)[C@@H](C)C[C@H]3C)C[C@H]2C)CC[C@@H]([C@]2(C)CC[C@@]3(C[C@@H](O)[C@@H](C)[C@@H]([C@H](C)[C@H](OC)[C@H](C)C(=O)O)O3)O2)O1	inactive: -29.3% [at 20.6 µM]	–

Structure (SMILES)	activity change, positive = activation	Potency
CCNC(=O)O/N=C(\C)c1sc(-c2ccc(Cl)cc2)nc1C	inactive: 28.6%	–
CC(=O)N1CCN(c2ccc(OCC3CO[C@@](Cn4ccnc4)(c4ccc(Cl)cc4Cl)O3)cc2)CC1 (stereo partly specified)	inactive: -68.6%	–
CN[C@@H]1C[C@@]2(C)O[C@@H]([C@@H]1OC)n1c3ccccc3c3c4c(c5c6ccccc6n2c5c31)C(=O)NC4	-99.4%	–
Cc1cccc(C2=NCC(=O)N(CC(=O)NCc3ccco3)c3sc4c(c32)CCCC4)c1	-32.8%	–
CCC(=O)OC1(c2cccc(C)c2)CC(C)N(C)CC1C (stereo unspecified)	31%	–
CC(Oc1ccc(Br)cc1)C(=O)N(Cc1nc(-c2ccccc2)no1)C(C)C (stereo unspecified)	inactive: -42.7%	–
CCCCc1nc2ccccc2c(=O)n1-c1ccc(Cl)cc1[N+](=O)[O-]	2.62%	–
CC(=O)Nc1ccccc1C(=O)OCC(=O)c1ccc2ccccc2c1	-35.5%	–
NC1=NC([S][Hg][c]2ccc(N)cc2)c2ncn([C@@H]3O[C@H](CO)[C@@H](O)[C@@H]3O)c2N1 (stereo partly specified)	inactive: -104% [at 9.22 µM]	–
Cc1cc(C=C2C(=O)NC(=O)NC2=O)c(C)n1-c1ccncc1	-6.71%	–
CCCCCCn1c(O)c(C=Nc2c(C)n(C)n(-c3ccccc3)c2=O)c(=O)[nH]c1=O	15%	–
CCCCCCN=C(CC)c1c(O)n(CCCC)c(=O)[nH]c1=O	-43.6%	–
COc1cc2c(cc1OC)-c1c(OC)c(OC)c(OC)c3ccnc(c13)C2=O	inactive: -44.4%	–
CCN1CCN(c2nc3ccccc3s2)CC1	–	active: 11.2 µM
CCN(CC)S(=O)(=O)c1ccc(NN=C(C#N)C#N)cc1	-44.3%	–
N#CC(C#N)=Cc1ccc(-c2ccccc2F)o1	-37.9%	–
CC1CN(O)C2CCc3nonc3C12O (stereo unspecified)	31.4%	–
CCCNS(=O)(=O)c1ccc(OCC(=O)N2CCN(Cc3ccccc3)CC2)cc1	-68.6%	–
Cc1cccn2c(=O)c3c(nc12)N1CCC(Cc2ccccc2)CC1C1(C3)C(=O)N(C)C(=O)N(C)C1=O (stereo unspecified)	-42.2%	–
Cc1cccc(-n2c(/C=C/c3ccc([N+](=O)[O-])o3)nc3ccccc3c2=O)c1	-84%	–
COc1ccc2c(c1)[nH]c1c(C)nccc12	–	inactive
COC(=O)C1=C(C)NC(C)=C(C(=O)OC)C1c1ccccc1[N+](=O)[O-]	–	inactive

From PubChem BioAssay AID1458 (National Center for Advancing Translational Sciences (NCATS), 2008)
